Laboratory results from patent publication US20230271965A1, “BICYCLIC HETEROARENES AND METHODS OF THEIR USE” (Kineta, Inc., priority 2020, published 2023).
The structures given here were assigned with low confidence; some may be wrong.

Amino acid sequences for entries named in this document (tags omitted).
UniProt Q9Y2I7, whole entry S696N/L932S/Q995L/T998S/S1033A/Q1183K: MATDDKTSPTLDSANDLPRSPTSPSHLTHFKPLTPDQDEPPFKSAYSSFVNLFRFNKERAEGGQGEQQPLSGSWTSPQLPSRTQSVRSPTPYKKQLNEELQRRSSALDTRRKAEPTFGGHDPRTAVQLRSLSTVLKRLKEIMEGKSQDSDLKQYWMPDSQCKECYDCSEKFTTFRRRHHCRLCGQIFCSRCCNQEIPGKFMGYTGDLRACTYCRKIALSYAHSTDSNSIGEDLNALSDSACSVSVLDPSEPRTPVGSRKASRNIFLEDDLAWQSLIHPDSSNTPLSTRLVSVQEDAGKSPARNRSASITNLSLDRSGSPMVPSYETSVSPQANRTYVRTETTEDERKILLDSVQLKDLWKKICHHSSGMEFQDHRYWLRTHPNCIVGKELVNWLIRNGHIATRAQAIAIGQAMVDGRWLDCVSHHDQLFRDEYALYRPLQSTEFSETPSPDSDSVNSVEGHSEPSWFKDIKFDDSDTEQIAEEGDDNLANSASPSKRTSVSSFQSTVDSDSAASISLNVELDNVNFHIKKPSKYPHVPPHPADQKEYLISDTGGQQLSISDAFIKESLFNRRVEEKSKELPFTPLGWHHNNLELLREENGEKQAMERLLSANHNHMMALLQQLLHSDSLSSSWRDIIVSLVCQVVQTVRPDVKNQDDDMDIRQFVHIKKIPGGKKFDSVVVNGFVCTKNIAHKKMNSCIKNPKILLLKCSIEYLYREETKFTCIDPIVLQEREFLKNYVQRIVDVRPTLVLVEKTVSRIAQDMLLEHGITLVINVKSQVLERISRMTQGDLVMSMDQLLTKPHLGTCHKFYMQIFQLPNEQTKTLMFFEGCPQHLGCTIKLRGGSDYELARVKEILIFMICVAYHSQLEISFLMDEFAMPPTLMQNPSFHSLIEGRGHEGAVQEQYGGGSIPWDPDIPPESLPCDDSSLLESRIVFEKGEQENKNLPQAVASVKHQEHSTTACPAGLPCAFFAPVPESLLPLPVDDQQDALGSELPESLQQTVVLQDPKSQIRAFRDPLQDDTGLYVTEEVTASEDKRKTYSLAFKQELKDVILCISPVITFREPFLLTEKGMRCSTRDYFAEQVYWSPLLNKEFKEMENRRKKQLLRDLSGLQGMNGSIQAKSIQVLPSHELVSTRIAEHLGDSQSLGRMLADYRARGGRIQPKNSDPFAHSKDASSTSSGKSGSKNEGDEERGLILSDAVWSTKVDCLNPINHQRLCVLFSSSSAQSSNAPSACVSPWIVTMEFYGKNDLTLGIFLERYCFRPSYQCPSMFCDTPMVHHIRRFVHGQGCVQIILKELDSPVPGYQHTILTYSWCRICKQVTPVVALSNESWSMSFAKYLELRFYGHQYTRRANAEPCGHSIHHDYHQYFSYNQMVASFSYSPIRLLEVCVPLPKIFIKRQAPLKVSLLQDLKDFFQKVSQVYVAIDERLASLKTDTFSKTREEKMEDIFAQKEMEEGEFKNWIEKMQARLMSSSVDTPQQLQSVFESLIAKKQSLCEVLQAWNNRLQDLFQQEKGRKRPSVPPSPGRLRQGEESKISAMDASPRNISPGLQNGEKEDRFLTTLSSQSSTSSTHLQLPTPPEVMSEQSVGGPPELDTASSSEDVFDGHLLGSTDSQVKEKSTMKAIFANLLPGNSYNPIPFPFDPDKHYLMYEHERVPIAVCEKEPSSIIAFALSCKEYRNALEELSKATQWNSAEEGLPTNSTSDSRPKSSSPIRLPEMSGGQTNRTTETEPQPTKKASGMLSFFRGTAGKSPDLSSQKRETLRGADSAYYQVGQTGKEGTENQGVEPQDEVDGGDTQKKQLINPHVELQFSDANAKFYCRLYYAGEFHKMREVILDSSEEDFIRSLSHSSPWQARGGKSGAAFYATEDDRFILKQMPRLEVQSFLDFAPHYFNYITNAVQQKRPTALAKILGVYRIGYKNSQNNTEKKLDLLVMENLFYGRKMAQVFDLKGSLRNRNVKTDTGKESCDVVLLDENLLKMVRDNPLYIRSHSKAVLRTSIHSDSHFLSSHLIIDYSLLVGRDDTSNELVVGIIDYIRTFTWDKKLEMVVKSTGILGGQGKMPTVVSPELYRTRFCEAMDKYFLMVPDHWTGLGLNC

Target: full-length human PIKFYVE (GST-PIKFYVE) (Homo sapiens, UniProt Q9Y2I7, L932S/Q1183K/Q995L/S1033A/S696N/T998S)
Assay: PIKfyve biochemical assay (ADP-Glo Kinase assay, Carna Biosciences)
Conditions: read-out: hPIKfyve IC50

IC50: 10 to 100 nM
SMILES: Fc1cccc(N2CCc3c(OCc4cccnc4)nc(N4CCOCC4)nc32)c1
